Data as given in patent US4695576A, “L-N-n-propylpipecolic acid-2,6-xylidide” (priority 1985, dated 1987).
Like-named read-outs stand apart in the source and are kept apart here.

Assays:
[1] = Force of contraction of guinea pig papillary muscle; type: cell-based; settings: read-out: Reduction of Force of Contraction at 1 Hz
Experimental: In order to initiate an investigation without the necessity to involve voltage-clamp of the calcium current, the preparations were subject to long depolarizing induced automaticity. If the cells are depolarized from about -50 to about -30 mV the automaticity is dependent on a transmembrane calcium current.
Guinea pig papillary tests were carried out according to the recommendation of the "Report of the Subcommittee on Cardiotoxicity of Local Anesthetics" (Leroy D. Vandam, M.D., chairman). […] Solutions maintained at 37° C.±0.5° continuously perfused the gap compartments. The rear chamber contained isotonic potassium chloride solution. The drugs were added to a Tris-Tyrode solution passing the tip of the muscle. […] It was adjusted to pH 7.4 with trismaleate and HCl before use and gassed with 100% oxygen. Isotonic sucrose solution isolated the rear from the tip to enable current- and voltage-clamping.
The force of contraction was measured with a strain gauge transducer before and after the addition of the test compounds to the medium. The percent reduction in maximum force of contraction from the control was calculated.

[2] = background statement, cited from earlier work

## CCN(CC)CC(=O)Nc1c(C)cccc1C [Lidocaine, 2-diethylamino-2',6'-acetoxylidide]
[1]; 5 × 10^-6 M
  inhibition at 5 µM: 9.4%
[1]; 10^-5 M
  inhibition at 10 µM: 0%
[2]
  cardiotoxicity: no cardiotoxicity
[2]; listed as lidocaine
  cardiotoxicity: much lower cardiotoxicity
